Source: patent publication US20250092033A1, “HETEROAROMATIC NITROGEN-OXIDE COMPOUND, PREPARATION METHOD THEREFOR, AND USE THEREOF” (BEIJING AVISTONE BIOTECHNOLOGY CO., LTD., priority 2021, published 2025)

By UniProt entry, the sequences of proteins in these tests, tags left out. Where a name states a change or a piece, a line headed by the entry shows the natural chain unless it says otherwise. Residues count along the entry.
UniProt P08581, 25-1390 limits assumed: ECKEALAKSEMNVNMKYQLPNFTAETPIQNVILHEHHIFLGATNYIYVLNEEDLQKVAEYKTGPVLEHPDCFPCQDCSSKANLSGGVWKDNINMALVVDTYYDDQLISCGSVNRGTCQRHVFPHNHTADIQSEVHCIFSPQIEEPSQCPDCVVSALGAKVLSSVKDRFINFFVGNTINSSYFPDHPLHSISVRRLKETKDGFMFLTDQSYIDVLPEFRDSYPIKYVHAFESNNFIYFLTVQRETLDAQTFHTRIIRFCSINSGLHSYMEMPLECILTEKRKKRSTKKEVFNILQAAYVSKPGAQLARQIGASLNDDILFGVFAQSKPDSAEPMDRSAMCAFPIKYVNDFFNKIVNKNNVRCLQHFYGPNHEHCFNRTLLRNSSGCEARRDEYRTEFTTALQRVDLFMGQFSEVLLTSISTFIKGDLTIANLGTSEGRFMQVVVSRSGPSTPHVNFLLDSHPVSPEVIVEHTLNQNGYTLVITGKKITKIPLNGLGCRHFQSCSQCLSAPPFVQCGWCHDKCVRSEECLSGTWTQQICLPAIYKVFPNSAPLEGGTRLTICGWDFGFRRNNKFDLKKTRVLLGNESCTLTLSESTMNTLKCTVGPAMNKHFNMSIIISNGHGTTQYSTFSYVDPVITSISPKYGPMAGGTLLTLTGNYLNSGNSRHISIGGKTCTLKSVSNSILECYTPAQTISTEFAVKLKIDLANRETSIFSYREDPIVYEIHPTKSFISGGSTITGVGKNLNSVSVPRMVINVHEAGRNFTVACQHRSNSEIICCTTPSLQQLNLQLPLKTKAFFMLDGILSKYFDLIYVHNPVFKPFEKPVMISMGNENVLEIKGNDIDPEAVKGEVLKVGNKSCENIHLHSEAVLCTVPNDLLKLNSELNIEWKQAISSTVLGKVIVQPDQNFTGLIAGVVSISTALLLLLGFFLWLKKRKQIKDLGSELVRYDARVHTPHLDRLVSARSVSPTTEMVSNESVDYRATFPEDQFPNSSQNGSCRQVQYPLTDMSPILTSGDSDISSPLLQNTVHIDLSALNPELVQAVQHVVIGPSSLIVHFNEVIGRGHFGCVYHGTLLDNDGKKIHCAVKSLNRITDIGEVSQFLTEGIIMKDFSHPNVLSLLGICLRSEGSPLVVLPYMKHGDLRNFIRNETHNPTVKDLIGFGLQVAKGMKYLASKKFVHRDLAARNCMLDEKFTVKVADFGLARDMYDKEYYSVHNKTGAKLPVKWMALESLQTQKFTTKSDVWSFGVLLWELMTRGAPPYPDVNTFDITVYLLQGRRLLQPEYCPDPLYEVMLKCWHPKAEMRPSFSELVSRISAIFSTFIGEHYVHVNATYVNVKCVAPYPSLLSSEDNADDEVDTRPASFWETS
UniProt P08581, 25-1390 D1228N limits assumed: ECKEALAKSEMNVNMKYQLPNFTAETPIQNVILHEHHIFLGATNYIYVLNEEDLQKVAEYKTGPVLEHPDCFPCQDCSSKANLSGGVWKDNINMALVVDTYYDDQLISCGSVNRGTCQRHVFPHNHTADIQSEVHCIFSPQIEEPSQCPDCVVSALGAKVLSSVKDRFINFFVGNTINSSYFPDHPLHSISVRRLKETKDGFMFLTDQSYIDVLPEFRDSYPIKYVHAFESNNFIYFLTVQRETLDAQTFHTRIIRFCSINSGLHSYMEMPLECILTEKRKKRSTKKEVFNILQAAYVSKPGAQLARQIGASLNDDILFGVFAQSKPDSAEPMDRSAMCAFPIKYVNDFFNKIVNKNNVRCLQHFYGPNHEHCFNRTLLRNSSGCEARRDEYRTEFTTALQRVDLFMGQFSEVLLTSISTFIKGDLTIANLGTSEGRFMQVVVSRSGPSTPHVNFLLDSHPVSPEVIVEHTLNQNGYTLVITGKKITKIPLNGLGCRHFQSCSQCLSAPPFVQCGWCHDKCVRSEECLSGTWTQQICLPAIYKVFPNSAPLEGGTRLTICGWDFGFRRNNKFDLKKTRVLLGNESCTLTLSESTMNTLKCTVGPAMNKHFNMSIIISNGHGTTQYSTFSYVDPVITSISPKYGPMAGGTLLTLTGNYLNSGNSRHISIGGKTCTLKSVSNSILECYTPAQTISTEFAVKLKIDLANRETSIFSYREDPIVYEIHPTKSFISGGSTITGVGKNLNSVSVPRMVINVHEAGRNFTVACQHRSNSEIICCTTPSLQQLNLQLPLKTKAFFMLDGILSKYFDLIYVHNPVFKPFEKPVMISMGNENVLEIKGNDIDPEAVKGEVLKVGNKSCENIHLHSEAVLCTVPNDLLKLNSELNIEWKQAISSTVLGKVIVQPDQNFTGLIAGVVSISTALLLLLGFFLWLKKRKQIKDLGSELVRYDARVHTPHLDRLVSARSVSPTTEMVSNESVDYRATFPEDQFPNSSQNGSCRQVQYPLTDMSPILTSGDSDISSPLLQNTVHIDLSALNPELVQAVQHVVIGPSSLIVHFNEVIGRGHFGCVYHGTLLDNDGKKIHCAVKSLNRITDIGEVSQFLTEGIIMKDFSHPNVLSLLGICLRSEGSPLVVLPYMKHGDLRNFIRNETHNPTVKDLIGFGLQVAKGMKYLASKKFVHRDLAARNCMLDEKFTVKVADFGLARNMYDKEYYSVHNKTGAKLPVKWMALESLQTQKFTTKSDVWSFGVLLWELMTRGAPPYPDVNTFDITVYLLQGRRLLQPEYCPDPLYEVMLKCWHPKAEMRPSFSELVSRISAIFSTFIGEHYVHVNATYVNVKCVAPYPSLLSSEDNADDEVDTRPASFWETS
UniProt P08581, 25-1390 F1200I limits assumed: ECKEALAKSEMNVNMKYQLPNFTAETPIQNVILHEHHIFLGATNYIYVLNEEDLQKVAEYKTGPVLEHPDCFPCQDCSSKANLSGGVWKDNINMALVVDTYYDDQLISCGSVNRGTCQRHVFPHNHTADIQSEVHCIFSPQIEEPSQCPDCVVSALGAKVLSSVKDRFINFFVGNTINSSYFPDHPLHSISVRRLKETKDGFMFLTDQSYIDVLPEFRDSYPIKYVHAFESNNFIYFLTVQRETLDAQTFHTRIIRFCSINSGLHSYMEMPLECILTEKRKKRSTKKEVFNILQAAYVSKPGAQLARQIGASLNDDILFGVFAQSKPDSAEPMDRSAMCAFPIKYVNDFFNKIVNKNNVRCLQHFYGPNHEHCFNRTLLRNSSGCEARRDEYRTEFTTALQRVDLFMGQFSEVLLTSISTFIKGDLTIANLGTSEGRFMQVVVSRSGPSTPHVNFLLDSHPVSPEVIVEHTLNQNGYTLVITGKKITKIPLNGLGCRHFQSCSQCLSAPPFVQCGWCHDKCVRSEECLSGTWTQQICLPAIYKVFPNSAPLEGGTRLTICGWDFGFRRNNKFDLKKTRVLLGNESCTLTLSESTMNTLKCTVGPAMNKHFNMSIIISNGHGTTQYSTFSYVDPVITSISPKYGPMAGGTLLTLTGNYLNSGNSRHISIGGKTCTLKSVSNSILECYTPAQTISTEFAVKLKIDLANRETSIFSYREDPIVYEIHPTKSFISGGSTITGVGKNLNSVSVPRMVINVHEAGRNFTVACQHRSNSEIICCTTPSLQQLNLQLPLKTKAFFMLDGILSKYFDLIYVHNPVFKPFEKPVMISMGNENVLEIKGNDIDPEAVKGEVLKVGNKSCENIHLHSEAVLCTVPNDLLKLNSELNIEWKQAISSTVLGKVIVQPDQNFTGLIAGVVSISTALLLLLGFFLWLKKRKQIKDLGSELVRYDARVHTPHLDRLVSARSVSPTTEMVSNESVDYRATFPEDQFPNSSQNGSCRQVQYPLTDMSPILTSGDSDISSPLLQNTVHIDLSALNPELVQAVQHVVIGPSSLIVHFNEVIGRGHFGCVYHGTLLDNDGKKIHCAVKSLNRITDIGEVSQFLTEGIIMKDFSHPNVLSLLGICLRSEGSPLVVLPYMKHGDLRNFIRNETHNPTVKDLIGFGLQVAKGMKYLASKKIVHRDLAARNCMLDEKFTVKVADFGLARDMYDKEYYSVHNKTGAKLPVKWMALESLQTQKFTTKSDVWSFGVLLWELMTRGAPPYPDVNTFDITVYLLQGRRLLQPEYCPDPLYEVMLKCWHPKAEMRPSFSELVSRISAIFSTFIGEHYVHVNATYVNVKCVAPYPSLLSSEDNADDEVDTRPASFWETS

Columns and labels:
Type in all cases: biochemical
[1] = target: MET F1200I (Homo sapiens, UniProt P08581, F1200I); assay: Kinase inhibition experiment (HTRF KinEASE-TK kit), mutant MET F1200I; settings: read-out: IC50 (nM) of inhibition of mutant F1200I MET kinase, 10 concentrations, 3-fold dilution
Experimental: (§1) The activity of the compounds was determined by detecting the residual amount of ATP after reacting with wild-type or mutant MET protein kinase by using an HTRF KinEASE-TK kit. […]
(§2) The compounds were determined on the selected kinase, the solvent control was set and a total of 10 concentrations were detected, diluted 3-fold, 2 replicates per concentration.
(§3) 1 volume of 5× kinase reaction buffer and 4 volumes of water; 5 mM MgCl2; 1 mM DTT; 1 mM MnCl2; or 2500 nm SEB.
(§4) 1) 10 nl or 4 μlof the diluted compound was transferred to each well of the reaction plate (784075 or 264706, Greiner or Thermo) with a pipette, the reaction plate was sealed with a sealing plate, and centrifuged at 1000 for 1 minute. […]
(§5) 5) the fluorescence signals at 615 nm (cryptate) and 665 nm (XL665) were read with Envision 2104 or TECAN.
(§6) The data was analyzed using GraphPad Prism 6.0 or 7 software, and the dose-response curve was fitted with nonlinear S-curve regression, and the IC50 value was calculated therefrom. […]

[2] = target: wild type (WT) MET kinase (Homo sapiens, UniProt P08581); assay: Kinase inhibition experiment (HTRF KinEASE-TK kit), wild-type MET; settings: read-out: IC50 (nM) of inhibition of wild type (WT) MET kinase, 10 concentrations, 3-fold dilution
Experimental: as §1, §2, §3, §4, §5, §6

[3] = target: MET D1228N (Homo sapiens, UniProt P08581, D1228N); assay: Kinase inhibition experiment (HTRF KinEASE-TK kit), mutant MET D1228N; settings: read-out: IC50 (nM) of inhibition of mutant D1228N MET kinase, 10 concentrations, 3-fold dilution
Experimental: as §1, §2, §3, §4, §5, §6

C[C@H](CO)Nc1n[nH]c2nccc(Oc3ccc(NC(=O)c4cc(C#N)cc(-c5ccc(F)cc5)[n+]4[O-])cc3F)c12
IC50 [1]: 51.1 nM | IC50 [2]: 22.2 nM | IC50 [3]: 33.5 nM

Structures were worked out from names or drawings and are uncertain.
